# This is one part of the list.
# Key:
# Assay in all cases: glycan array binding signal (z-score within array); higher = stronger binding
# Conditions in all cases: glycan notation: IUPAC condensed, linker removed
# [1] = molecular target: Neu5Ac(a2-3)Gal(b1-3)GlcNAc(b1-2)Man(a1-3)[GlcNAc(b1-4)][Neu5Ac(a2-3)Gal(b1-3)GlcNAc(b1-2)Man(a1-6)]Man(b1-4)GlcNAc(b1-4)GlcNAc
# Procedure, shortened: (§1)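 The binding signal is a Z-score computed within each array. Data were drawn from 3228 arrays in the Consortium for Functional Glycomics database, restricted to those with a known protein sequence. Scores were averaged over arrays of the same protein sequence at different concentrations or buffers, and over linkers, and negative values can be taken as non-binding.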
# [2] = molecular target: Neu5Ac(a2-3)Gal(b1-3)GlcNAc(b1-2)Man(a1-3)[Neu5Ac(a2-3)Gal(b1-3)GlcNAc(b1-2)Man(a1-6)]Man(b1-4)GlcNAc(b1-4)GlcNAc
# Procedure, shortened: as §1
# [3] = molecular target: Neu5Ac(a2-3)Gal(b1-3)GlcNAc(b1-3)Gal(b1-3)GlcNAc
# Procedure, shortened: as §1
# [4] = molecular target: Neu5Ac(a2-3)Gal(b1-3)GlcNAc(b1-3)Gal(b1-4)GlcNAc
# Procedure, shortened: as §1
# [5] = molecular target: Neu5Ac(a2-3)Gal(b1-3)GlcNAc(b1-3)GalNAc
# Procedure, shortened: as §1
# [6] = molecular target: Neu5Ac(a2-3)Gal(b1-3)GlcNAc(b1-4)Gal(b1-4)Glc
# Procedure, shortened: as §1
# [7] = molecular target: Neu5Ac(a2-3)Gal(b1-3)GlcNAc(b1-6)GalNAc
# Procedure, shortened: as §1
# [8] = molecular target: Neu5Ac(a2-3)Gal(b1-3)GlcNAc6S
# Procedure, shortened: as §1
# [9] = molecular target: Neu5Ac(a2-3)Gal(b1-3)[Fuc(a1-4)]GlcNAc
# Procedure, shortened: as §1
# [10] = molecular target: Neu5Ac(a2-3)Gal(b1-3)[Fuc(a1-4)]GlcNAc(b1-3)Gal(b1-3)[Fuc(a1-4)]GlcNAc
# Procedure, shortened: as §1
# [11] = molecular target: Neu5Ac(a2-3)Gal(b1-3)[Fuc(a1-4)]GlcNAc(b1-3)Gal(b1-4)[Fuc(a1-3)]GlcNAc
# Procedure, shortened: as §1
# [12] = molecular target: Neu5Ac(a2-3)Gal(b1-3)[GlcNAc(b1-6)]GalNAc
# Procedure, shortened: as §1
# [13] = molecular target: Neu5Ac(a2-3)Gal(b1-3)[Neu5Ac(a2-6)]GalNAc
# Procedure, shortened: as §1
# [14] = molecular target: Neu5Ac(a2-3)Gal(b1-3)[Neu5Ac(a2-6)]GlcNAc(b1-3)[Fuc(a1-3)[Gal(b1-4)]GlcNAc(b1-6)]Gal(b1-4)Glc
# Procedure, shortened: as §1
# [15] = molecular target: Neu5Ac(a2-3)Gal(b1-3)]Neu5Ac(a2-3)Gal(b1-4)]GlcNAc
# Procedure, shortened: as §1
# Neu5Ac(a2-3)Gal(b1-4)Glc = molecular target: Neu5Ac(a2-3)Gal(b1-4)Glc
# Procedure, shortened: as §1
# [16] = molecular target: Neu5Ac(a2-3)Gal(b1-4)GlcNAc
# Procedure, shortened: as §1
# [17] = molecular target: Neu5Ac(a2-3)Gal(b1-4)GlcNAc(b1-2)Man
# Procedure, shortened: as §1
# [18] = molecular target: Neu5Ac(a2-3)Gal(b1-4)GlcNAc(b1-2)Man(a1-3)[GlcNAc(b1-4)][Neu5Ac(a2-3)Gal(b1-4)GlcNAc(b1-2)Man(a1-6)]Man(b1-4)GlcNAc(b1-4)GlcNAc
# Procedure, shortened: as §1
# [19] = molecular target: Neu5Ac(a2-3)Gal(b1-4)GlcNAc(b1-2)Man(a1-3)[Neu5Ac(a2-3)Gal(b1-4)GlcNAc(b1-2)Man(a1-6)]Man(b1-4)GlcNAc(b1-4)GlcNAc
# Procedure, shortened: as §1
# [20] = molecular target: Neu5Ac(a2-3)Gal(b1-4)GlcNAc(b1-2)Man(a1-3)[Neu5Ac(a2-3)Gal(b1-4)GlcNAc(b1-2)Man(a1-6)]Man(b1-4)GlcNAc(b1-4)[Fuc(a1-6)]GlcNAc
# Procedure, shortened: as §1
# [21] = molecular target: Neu5Ac(a2-3)Gal(b1-4)GlcNAc(b1-2)Man(a1-3)[Neu5Ac(a2-6)Gal(b1-4)GlcNAc(b1-2)Man(a1-6)]Man(b1-4)GlcNAc(b1-4)GlcNAc
# Procedure, shortened: as §1
# [22] = molecular target: Neu5Ac(a2-3)Gal(b1-4)GlcNAc(b1-2)[Neu5Ac(a2-3)Gal(b1-4)GlcNAc(b1-4)]Man(a1-3)[GlcNAc(b1-4)][Neu5Ac(a2-3)Gal(b1-4)GlcNAc(b1-2)[Neu5Ac(a2-3)Gal(b1-4)GlcNAc(b1-6)]Man(a1-6)]Man(b1-4)GlcNAc(b1-4)GlcNAc
# Procedure, shortened: as §1
# [23] = molecular target: Neu5Ac(a2-3)Gal(b1-4)GlcNAc(b1-2)[Neu5Ac(a2-3)Gal(b1-4)GlcNAc(b1-4)]Man(a1-3)[GlcNAc(b1-4)][Neu5Ac(a2-3)Gal(b1-4)GlcNAc(b1-4)Man(a1-6)]Man(b1-4)GlcNAc(b1-4)GlcNAc
# Procedure, shortened: as §1
# [24] = molecular target: Neu5Ac(a2-3)Gal(b1-4)GlcNAc(b1-2)[Neu5Ac(a2-3)Gal(b1-4)GlcNAc(b1-6)]Man(a1-6)[Neu5Ac(a2-3)Gal(b1-4)GlcNAc(b1-2)Man(a1-3)]Man(b1-4)GlcNAc(b1-4)GlcNAc
# Procedure, shortened: as §1
# [25] = molecular target: Neu5Ac(a2-3)Gal(b1-4)GlcNAc(b1-2)[Neu5Ac(a2-3)Gal(b1-4)GlcNAc(b1-6)]Man(a1-6)[Neu5Ac(a2-3)Gal(b1-4)GlcNAc(b1-2)Man(a1-3)][GlcNAc(b1-4)]Man(b1-4)GlcNAc(b1-4)GlcNAc
# Procedure, shortened: as §1
# [26] = molecular target: Neu5Ac(a2-3)Gal(b1-4)GlcNAc(b1-3)Gal
# Procedure, shortened: as §1
# [27] = molecular target: Neu5Ac(a2-3)Gal(b1-4)GlcNAc(b1-3)Gal(b1-3)GlcNAc
# Procedure, shortened: as §1
# [28] = molecular target: Neu5Ac(a2-3)Gal(b1-4)GlcNAc(b1-3)Gal(b1-4)GlcNAc
# Procedure, shortened: as §1
# [29] = molecular target: Neu5Ac(a2-3)Gal(b1-4)GlcNAc(b1-3)Gal(b1-4)GlcNAc(b1-2)Man(a1-3)[Neu5Ac(a2-3)Gal(b1-4)GlcNAc(b1-3)Gal(b1-4)GlcNAc(b1-2)Man(a1-6)]Man(b1-4)GlcNAc(b1-4)GlcNAc
# Procedure, shortened: as §1
# [30] = molecular target: Neu5Ac(a2-3)Gal(b1-4)GlcNAc(b1-3)Gal(b1-4)GlcNAc(b1-3)Gal(b1-4)GlcNAc
# Procedure, shortened: as §1
# [31] = molecular target: Neu5Ac(a2-3)Gal(b1-4)GlcNAc(b1-3)Gal(b1-4)GlcNAc(b1-3)Gal(b1-4)GlcNAc(b1-2)Man(a1-3)[Neu5Ac(a2-3)Gal(b1-4)GlcNAc(b1-3)Gal(b1-4)GlcNAc(b1-3)Gal(b1-4)GlcNAc(b1-2)Man(a1-6)]GalNAc
# Procedure, shortened: as §1
# [32] = molecular target: Neu5Ac(a2-3)Gal(b1-4)GlcNAc(b1-3)Gal(b1-4)GlcNAc(b1-3)GalNAc
# Procedure, shortened: as §1
# [33] = molecular target: Neu5Ac(a2-3)Gal(b1-4)GlcNAc(b1-3)Gal(b1-4)GlcNAc(b1-3)[Neu5Ac(a2-3)Gal(b1-4)GlcNAc(b1-3)Gal(b1-4)GlcNAc(b1-6)]GalNAc
# Procedure, shortened: as §1
# [34] = molecular target: Neu5Ac(a2-3)Gal(b1-4)GlcNAc(b1-3)Gal(b1-4)GlcNAc(b1-6)[Gal(b1-3)]GalNAc
# Procedure, shortened: as §1
# [35] = molecular target: Neu5Ac(a2-3)Gal(b1-4)GlcNAc(b1-3)Gal(b1-4)[Fuc(a1-3)]GlcNAc
# Procedure, shortened: as §1
# [36] = molecular target: Neu5Ac(a2-3)Gal(b1-4)GlcNAc(b1-3)GalNAc
# Procedure, shortened: as §1
# [37] = molecular target: Neu5Ac(a2-3)Gal(b1-4)GlcNAc(b1-3)[Neu5Ac(a2-3)Gal(b1-4)GlcNAc(b1-6)]GalNAc
# Procedure, shortened: as §1
binder,measurement,setting,value
"HopZSSI-T (Helicobacter pylori), B5Z6D0 (protein) MGSSHHHHHHSSGLVPRGSHMENLYFQGEDNGFFISAGYQIGEAAQMVKNTGELKKLSDTYENLSNLLTNFNNLNQAVTNASSPSEINAAIDNLKANTQGLTGEKTNSPAYQAVYLALNAAVGLWNVIAYNVQCGPGNSSQQSVTFEGQPGHNSSSINCNLTGYNNGVSGPLSIDNFKQLNQAYQVLQQALKQGVPVLNNTNQKIEVKVTTQTNGQSSKETTTTTTTNDAQTLLQEASKMIDVLTTNCPWVNHNPGQNGGAPWGLIRQECVSGFATEFSAVTSMIKNAQEIVTQAQSLNANQNNQNAPQDFNPYTSADRAFAQNMLNHAQAQAKILELADQMKKDLNTIPSQFITNYLAACRIDGTTPSQGVTNNTWGAGCAYVEETITALNNSLAHFGTQAEQIKQSELLARTILDFRGSLSTLNSTYNSITTTASNTPNSPFLKNLISQSTNPNNPGGLQAVYQVNQSAYSQLLSATQELGHNPFRRIGLISSQT",glycan array binding signal (z-score),[1],-0.416
same,glycan array binding signal (z-score),[2],-0.396
same,glycan array binding signal (z-score),[3],0.034
same,glycan array binding signal (z-score),[4],0.13
same,glycan array binding signal (z-score),[5],-0.249
same,glycan array binding signal (z-score),[6],0.086
same,glycan array binding signal (z-score),[7],0.672
same,glycan array binding signal (z-score),[8],0.73
same,glycan array binding signal (z-score),[9],-0.514
same,glycan array binding signal (z-score),[10],-0.391
same,glycan array binding signal (z-score),[11],-0.238
same,glycan array binding signal (z-score),[12],-0.325
same,glycan array binding signal (z-score),[13],0.098
same,glycan array binding signal (z-score),[14],-0.611
same,glycan array binding signal (z-score),[15],-0.452
same,glycan array binding signal (z-score),Neu5Ac(a2-3)Gal(b1-4)Glc,-0.114
same,glycan array binding signal (z-score),[16],0.173
same,glycan array binding signal (z-score),[17],0.254
same,glycan array binding signal (z-score),[18],-0.08
same,glycan array binding signal (z-score),[19],0.179
same,glycan array binding signal (z-score),[20],-0.036
same,glycan array binding signal (z-score),[21],-0.163
same,glycan array binding signal (z-score),[22],-0.433
same,glycan array binding signal (z-score),[23],-0.259
same,glycan array binding signal (z-score),[24],-0.473
same,glycan array binding signal (z-score),[25],0.342
same,glycan array binding signal (z-score),[26],-0.109
same,glycan array binding signal (z-score),[27],-0.736
same,glycan array binding signal (z-score),[28],-0.406
same,glycan array binding signal (z-score),[29],0.139
same,glycan array binding signal (z-score),[30],-0.091
same,glycan array binding signal (z-score),[31],1.3
same,glycan array binding signal (z-score),[32],-0.425
same,glycan array binding signal (z-score),[33],-0.56
same,glycan array binding signal (z-score),[34],0.966
same,glycan array binding signal (z-score),[35],0.1
same,glycan array binding signal (z-score),[36],-0.423
same,glycan array binding signal (z-score),[37],0.302

# Random excerpt: 3 entries already listed
binder,measurement,setting,value
"HopZSSI-T (Helicobacter pylori), B5Z6D0 (protein) MGSSHHHHHHSSGLVPRGSHMENLYFQGEDNGFFISAGYQIGEAAQMVKNTGELKKLSDTYENLSNLLTNFNNLNQAVTNASSPSEINAAIDNLKANTQGLTGEKTNSPAYQAVYLALNAAVGLWNVIAYNVQCGPGNSSQQSVTFEGQPGHNSSSINCNLTGYNNGVSGPLSIDNFKQLNQAYQVLQQALKQGVPVLNNTNQKIEVKVTTQTNGQSSKETTTTTTTNDAQTLLQEASKMIDVLTTNCPWVNHNPGQNGGAPWGLIRQECVSGFATEFSAVTSMIKNAQEIVTQAQSLNANQNNQNAPQDFNPYTSADRAFAQNMLNHAQAQAKILELADQMKKDLNTIPSQFITNYLAACRIDGTTPSQGVTNNTWGAGCAYVEETITALNNSLAHFGTQAEQIKQSELLARTILDFRGSLSTLNSTYNSITTTASNTPNSPFLKNLISQSTNPNNPGGLQAVYQVNQSAYSQLLSATQELGHNPFRRIGLISSQT",glycan array binding signal (z-score),[33],-0.56
same,glycan array binding signal (z-score),[22],-0.433
same,glycan array binding signal (z-score),[4],0.13

# From the supplement of paper PMC8728848
